In publication PMC3744471, “Mitochondria Are the Target Organelle of Differentiation-Inducing Factor-3, an Anti-Tumor Agent Isolated from Dictyostelium Discoideum” (PLoS ONE, 2013):

System: HeLa cells
Assay: Fluorescence microscopy: membrane permeability and cellular localization
Type: cell-based, human
Settings: 20 µM, 0.5 h
Method: HeLa cells were cultured for 1–2 days with 2 ml DMEM-FBS in 35-mm tissue culture dishes (Becton Dickinson), washed twice with PBS(–), and then fixed for 15–20 min at room temperature with 2 ml of 3.7% (v/v) formaldehyde in PBS(–). The cells were then washed twice with PBS(–) and used for staining with the fluorescent probes. Alternatively, the fixed cells were treated for 15–20 min with 2 ml of 0.1% (w/v) Triton X-100 in PBS(–), washed twice with PBS(–), and used for staining with the fluorescent probes. […]
For high magnification multi-color imaging, cells were incubated for the appropriate times with 2 ml of DMEM-FBS (HeLa and 3T3-L1) or MEM-α-FBS (LM8) containing various compounds in 35-mm plastic dishes (tissue culture treated µ-Dish; ibidi, Martinsried, Germany). The cells were washed twice with 2 ml of PBS(–), submerged in 2 ml of Hepes buffer (pH 7.4), and observed at room temperature with a Keyence BZ-9000 fluorescence microscope (Osaka, Japan) equipped with an oil immersion 100× lens (CFI Plan Apo VC100XH) and multi-filters that can distinguish four fluorescent probes simultaneously. […]

Row | Compound | Cellular staining / localization
1 | CCCCCC(=O)c1c(O)cc(OCCCCNC(=O)CCC2=[N+]3C(=Cc4c(C)cc(C)n4[B-]3(F)F)C=C2)c(Cl)c1O [BODIPY-DIF-3] | localized mainly in mitochondria
2 | CCCCNC(=O)CCC1=[N+]2C(=Cc3c(C)cc(C)n3[B-]2(F)F)C=C1 [Bu-BODIPY] | did not show any notable staining
